From patent US9474277B2, “Pyrazole compound and pesticidal mixtures comprising a pyrazole compound” (BASF SE, priority 2012, dated 2016)
The name of at least one read-out is uncertain.

Test system: Greenbug Aphid, Schizaphis graminum
Assay: Test 13 - Activity against greenbug aphid, wheat seed treatment
Type: in vivo
Conditions: table with fungicides F.1 to F.11; 20 g a.i./100 kg seeds, single active; aphids counted 4 DAI
Experimental: Test 13—Activity Against Greenbug Aphid, Schizaphis graminum: Wheat seed treatment
Technical material was dissolved in acetone at sub-lethal doses. 50 μL of solution was added to a 20-ml scintillation vial, 15 wheat seeds were added, and the seeds were coated by vortexing the vial for 1 minute. The seeds were allowed to dry and planted later the same day. Seeds were planted individually in a moistened, fertilized soil mixture of 1:1 North Carolina loamy sand (Sandhill soil):play sand in 40.32 cm^2 pots. Pots were arranged in a randomized complete block design in the greenhouse and top-watered daily. Plant emergence and shoot phytotoxicity were evaluated 4, 7, and 14 days after treatment (DAT). At 14 DAT (true leaf stage), each plant was infested with 10 greenbug aphids (Schizaphis graminum) of mixed stages. Plants were maintained on light carts in a randomized complete block design and bottom-watered as needed. Twelve replicates (pots) were prepared for plant emergence and five replicates were prepared for infestation. Live aphids were counted 4 DAI and the mean percent population reduction relative to the solvent blank control was calculated.

c1ccc2[nH]c(-c3cscn3)nc2c1 [Thiabendazole]
Observed efficacy (%): 13%
